Test results as given in article PMC12217004, “Evolutionary regulation of human Fas ligand (CD95L) by plasmin in solid cancer immunotherapy” (Nature Communications, 2025).
No constants are given. Whether binding was seen depends on the method and setting. Some entries that bind do so weakly or less than the wild type. Tags and fused reporters may be left off the sequences shown.

Biological target: T1, human Fas ligand extracellular domain, shorter form, His-tagged (HuFasL^S, 134-281) (human), P48023
T1 chain: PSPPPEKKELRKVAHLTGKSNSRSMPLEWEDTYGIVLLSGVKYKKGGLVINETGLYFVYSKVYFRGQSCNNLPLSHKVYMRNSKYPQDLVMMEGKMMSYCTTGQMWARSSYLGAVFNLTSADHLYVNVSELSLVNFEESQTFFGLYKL
Experiment: non-reducing gel with 60% lowered SDS, FasL immunoblot; his-tagged human and murine FasL forms added onto murine 4T1 cells (also human OVCAR3 cells) for 2 hr in serum-free media; supernatant precipitated and loaded without boiling on non-reducing gels; both purified
Settings: remark: other sources report otherwise

binding: binds
B1: human Fas ligand extracellular domain, shorter form, His-tagged (HuFasL^S, 134-281), P48023 134-281 (domain or fragment)
chain: PSPPPEKKELRKVAHLTGKSNSRSMPLEWEDTYGIVLLSGVKYKKGGLVINETGLYFVYSKVYFRGQSCNNLPLSHKVYMRNSKYPQDLVMMEGKMMSYCTTGQMWARSSYLGAVFNLTSADHLYVNVSELSLVNFEESQTFFGLYKL
